# Data as given in PubChem BioAssay AID1259424 (University of Nebraska Medical Center, 2018)
# Test: 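Rank knockdowns across the genome by resemblance to the KSR1 depletion profile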 (primary screen)
# Cells: human HCT116 colon cancer cells
# Reagents: siRNA pool against human genes, 50 nM
# Measurement: 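Log2 levels of six mRNAs (branched-DNA multiplex), adjusted by two reference genes and the non-targeting median, then scored against the average KSR1 knockdown pattern as Pearson r and euclidean distance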
# Scale: mean correlation with KSR1 profile and KSR1 correlation: higher = expression change more like KSR1 knockdown; mean distance from KSR1 profile: higher = expression change less like KSR1 knockdown
# This is an unselected part of about 14,000 reagents. 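Higher correlation or smaller distance means closer resemblance to KSR1 loss; control wells, including KSR1 knockdowns, recur on many plates.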 Further read-outs or replicates are left out here. No sequences are given here. Not stated in the record: the time to read-out.
gene,mean correlation with KSR1 profile,mean distance from KSR1 profile,"KSR1 correlation, replicate 1","KSR1 correlation, replicate 2"
OLR1 (GeneID 4973),0.202,1.04,0.322,-0.0675
SCRN1 (GeneID 9805),-0.194,2.58,-0.266,-0.15
WNT6 (GeneID 7475),-0.302,2.56,-0.202,-0.49
SPTBN2 (GeneID 6712),-0.377,1.59,-0.12,-0.4
SP3 (GeneID 6670),0.613,1.49,0.639,0.776
NUMB (GeneID 8650),0.0446,1.98,-0.381,0.112
ACTL7B (GeneID 10880),0.0202,3.62,-0.0114,0.0744
C3orf18 (GeneID 51161),-0.405,4.85,-0.271,-0.346
CGB1 (GeneID 114335),0.147,1.39,-0.0459,0.657
METTL5 (GeneID 29081),0.185,1.84,-0.0336,0.168
BRI3 (GeneID 25798),0.0486,2.79,0.388,-0.268
DCT (GeneID 1638),-0.189,2.86,-0.0958,-0.309
MBTD1 (GeneID 54799),-0.206,2.32,-0.263,-0.371
DMBT1 (GeneID 1755),-0.0311,1.53,-0.0474,0.0738
MTF2 (GeneID 22823),0.407,1.47,0.428,-0.524
WASF2 (GeneID 10163),0.65,1.9,0.576,0.564
NOXA1 (GeneID 10811),0.0785,1.31,0.463,-0.232
CCR7 (GeneID 1236),0.469,2.58,0.484,0.499
AKAP5 (GeneID 9495),0.378,2.09,0.618,0.321
HINT1 (GeneID 3094),0.0716,1.7,0.237,-0.2

2 entries already listed, ordered by “KSR1 correlation, replicate 1”, descending:
gene,mean correlation with KSR1 profile,mean distance from KSR1 profile,"KSR1 correlation, replicate 1","KSR1 correlation, replicate 2"
BRI3 (GeneID 25798),0.0486,2.79,0.388,-0.268
DCT (GeneID 1638),-0.189,2.86,-0.0958,-0.309
